According to US20160333065A1:
Results are given in words; binding and its absence hold for the method and conditions named. A result given as binding can be weak or reduced; the word gives no strength.

Target: HLA-B*3501 (human)
Assay: competition-based cellular HLA class I binding assay (stripped B-LCL, flow cytometry); column 'HLA class I molecule in which the peptide binds'

binding: binds
Binder: LPRELFPPLF [PRAME peptide 48-57 …]
